Source: PMC7105379
These are yes or no findings as the source states them, for the method shown. In cells and extracts the contact can be indirect. Binding can be weak; no strength is given.

B1: Aldolase (Ald), endogenous (enzyme, UniProt P07764 1-361)
chain: MTTYFNYPSKELQDELREIAQKIVAPGKGILAADESGPTMGKRLQDIGVENTEDNRRAYRQLLFSTDPKLAENISGVILFHETLYQKADDGTPFAEILKKKGIILGIKVDKGVVPLFGSEDEVTTQGLDDLAARCAQYKKDGCDFAKWRCVLKIGKNTPSYQSILENANVLARYASICQSQRIVPIVEPEVLPDGDHDLDRAQKVTETVLAAVYKALSDHHVYLEGTLLKPNMVTAGQSAKKNTPEEIALATVQALRRTVPAAVTGVTFLSGGQSEEEATVNLSAINNVPLIRPWALTFSYGRALQASVLRAWAGKKENIAAGQNELLKRAKANGDAAQGKYVAGSAGAGSGSLFVANHAY
B2: Phosphoglycerate mutase 78 (Pglym), endogenous (enzyme, UniProt Q9VAN7 1-255)
chain: MGGKYKIVMVRHGESEWNQKNQFCGWYDANLSEKGQEEALAAGKAVKDAGLEFDVAHTSVLTRAQVTLASILKASGHKEIPIQKTWRLNERHYGGLTGLNKAETAAKYGEAQVQIWRRSFDTPPPPMEPGHPYYENIVKDPRYAEGPKPEEFPQFESLKLTIERTLPYWNDVIIPQMKEGKRILIAAHGNSLRGIVKHLDNLSEDAIMALNLPTGIPFVYELDENFKPVVSMQFLGDEETVKKAIEAVAAQGKAK

Biological target: Drosophila TRIM32 (Drosophila melanogaster (endogenous in L3 larvae))
Test: co-IP; anti-TRIM32 antibody on Protein A Sepharose, 2 mg WT L3 larval lysate, 2 hr at 4°C; washed five times in 1M NaCl, 1% Triton, PBS; Western blot

| Binder | binding |
| --- | --- |
| B1 | binds |
| B2 | binds |
